Percent effect of library compounds

Amino acid sequences for entries named in this document (tags omitted). Residues count along the entry.
UniProt Q4DA54, 1-478: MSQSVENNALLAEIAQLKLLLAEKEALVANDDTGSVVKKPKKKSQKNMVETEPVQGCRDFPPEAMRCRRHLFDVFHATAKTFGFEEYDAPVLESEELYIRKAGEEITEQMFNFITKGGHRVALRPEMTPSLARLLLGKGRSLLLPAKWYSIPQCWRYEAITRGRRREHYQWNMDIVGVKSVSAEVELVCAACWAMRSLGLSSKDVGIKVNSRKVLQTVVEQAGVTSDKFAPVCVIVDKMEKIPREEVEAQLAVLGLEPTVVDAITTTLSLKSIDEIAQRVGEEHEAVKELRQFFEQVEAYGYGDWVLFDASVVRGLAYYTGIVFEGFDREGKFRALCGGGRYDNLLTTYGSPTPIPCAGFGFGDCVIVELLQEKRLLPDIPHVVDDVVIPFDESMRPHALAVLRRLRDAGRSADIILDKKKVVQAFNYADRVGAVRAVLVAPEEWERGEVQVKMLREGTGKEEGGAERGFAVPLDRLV
UniProt A4I591, 1-473: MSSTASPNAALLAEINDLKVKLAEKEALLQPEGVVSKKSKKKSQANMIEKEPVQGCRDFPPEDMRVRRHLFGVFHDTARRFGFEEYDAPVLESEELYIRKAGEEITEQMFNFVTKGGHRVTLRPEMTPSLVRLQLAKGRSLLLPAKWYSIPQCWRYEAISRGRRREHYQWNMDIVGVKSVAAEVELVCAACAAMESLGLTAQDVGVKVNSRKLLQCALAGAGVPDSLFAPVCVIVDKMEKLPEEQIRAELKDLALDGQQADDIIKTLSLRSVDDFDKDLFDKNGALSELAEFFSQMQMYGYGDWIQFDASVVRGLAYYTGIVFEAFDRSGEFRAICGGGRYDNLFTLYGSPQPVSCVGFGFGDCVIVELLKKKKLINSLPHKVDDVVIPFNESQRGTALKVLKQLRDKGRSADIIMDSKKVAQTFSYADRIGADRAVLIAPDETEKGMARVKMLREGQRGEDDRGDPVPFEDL
UniProt P9WPC5, whole entry: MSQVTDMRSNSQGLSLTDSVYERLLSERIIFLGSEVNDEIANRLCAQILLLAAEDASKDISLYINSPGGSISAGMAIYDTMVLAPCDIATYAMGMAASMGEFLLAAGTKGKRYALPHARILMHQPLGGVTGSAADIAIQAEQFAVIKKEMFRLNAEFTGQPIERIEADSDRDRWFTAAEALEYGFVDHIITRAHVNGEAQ
UniProt P9WPC3, whole entry partner: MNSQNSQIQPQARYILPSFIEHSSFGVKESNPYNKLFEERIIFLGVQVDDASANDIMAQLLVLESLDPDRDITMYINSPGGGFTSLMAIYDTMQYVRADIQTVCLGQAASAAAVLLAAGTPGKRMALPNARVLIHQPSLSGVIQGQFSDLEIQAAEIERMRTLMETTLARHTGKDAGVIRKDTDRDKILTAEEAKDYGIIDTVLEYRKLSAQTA

Toxoplasma: 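Assay of Toxoplasma gondii numbers, read through their beta-galactosidase reporter with a colour substrate. Concentration: 10 µM. The record gives no direction; the compounds picked for IC50 retests had high values, so higher reads as fewer parasites. Of about 67,000 compounds tested this way, about 260 (0.38%) reached 50% or more in at least one test.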
Leishmania in macrophages: 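Cell assay of Leishmania donovani living inside macrophages; the read-out is not stated. Compounds at 30 µM. Higher reads as stronger inhibition (inferred: compounds with an IC50 in retests scored well above the rest). Size under these conditions: about 69,000 compounds, about 1,000 of them at 50% or above in at least one test.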
TcHisRS: 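Histidine-tRNA ligase, Trypanosoma cruzi CL Brener (UniProt Q4DA54). Enzyme assay of histidyl-tRNA synthetase; the read-out is not stated. Compounds at 30 µM. Direction is inferred from retests: higher values go with stronger inhibition. Size under these conditions: about 69,000 compounds, about 31 of them at 50% or above in at least one test.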
LiHisRS: 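Enzyme assay of histidyl-tRNA synthetase; the read-out is not stated. Target: Histidine-tRNA ligase, Leishmania infantum (UniProt A4I591). Concentration: 30 µM. The record gives no direction; compounds that gave an IC50 in retests scored well above the rest, so higher reads as stronger inhibition. The assay is labelled LdHisRS but filed under L. infantum. Size under these conditions: about 69,000 compounds, about 410 of them at 50% or above in at least one test.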
ClpP1P2: 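Protease assay of ClpP1P2, read by the AMC dye that it sets free. Target: ClpP1P2, Mycobacterium tuberculosis (UniProt P9WPC5 and UniProt P9WPC3). Compounds at 50 µM. Direction is inferred from only a few compounds that gave an IC50; most scored high, so higher reads as stronger inhibition. Most other retested compounds had strongly negative values. Size under these conditions: about 69,000 compounds, about 10 of them at 50% or above in at least one test.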
T. brucei: 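Whole-parasite assay of Trypanosoma brucei over 72 hours; the read-out is not stated. Concentration: 30 µM. Higher reads as stronger inhibition (inferred: compounds with an IC50 in retests scored well above the rest). Values scatter widely below zero; nearly all retest evidence comes from the higher of the two concentrations used. Of about 64,000 compounds tested this way, about 940 (1.5%) reached 50% or more in at least one test.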

Each number is a percent effect as filed.
The record does not define 0% and 100%; most values in the screen are far below 50% and negative numbers occur (in some assays of this library far below -100).
The compounds are a random part of those screened.

SMILES: O=C(O)C(F)(F)F.[H][C@@]12C[C@H](c3nc(C)cs3)O[C@@]1([H])CCN(Cc1cc(C)on1)C2
Toxoplasma: 1.876
Leishmania in macrophages: 17.49
T. brucei: -92.36

SMILES: CC(C)C(=O)NC1CCCN(C(=O)c2ccccc2O)C1 (stereo not given)
Toxoplasma: -49.98
Leishmania in macrophages: 20.61
TcHisRS: 4.871
LiHisRS: 15.79
ClpP1P2: 1.502
T. brucei: 11.65

SMILES: Cc1c(Br)cccc1C(=O)NCCC1CCCNC1 (stereo not given)
TcHisRS: 5.419
LiHisRS: -6.494
ClpP1P2: -11.95

SMILES: [H][C@@]12CCN(Cc3cc(C)on3)C[C@@]1([H])O[C@@H](c1nccs1)C2
Toxoplasma: -5.433
Leishmania in macrophages: -0.9556

SMILES: CN(Cc1ccco1)[C@@H]1CN(Cc2nccs2)C[C@@H]2CCCO[C@@H]21
TcHisRS: 9.091
LiHisRS: 0
ClpP1P2: -11.54

SMILES: CN(Cc1cccs1)C(=O)CNC1CCc2ncnn2C1 (stereo not given)
Toxoplasma: -2.678
Leishmania in macrophages: -9.171
TcHisRS: 2.703
LiHisRS: 1.709
ClpP1P2: -3.16
T. brucei: -16.15

SMILES: C[C@@H](N)C(=O)N1CC2(CCNCC2)c2cc(Cl)ccc21.Cl.Cl
Toxoplasma: 20.32
Leishmania in macrophages: 18.29
T. brucei: 51.33

SMILES: CC(C)OCc1cccc(CNc2cnn(C)c(=O)c2Cl)c1
Toxoplasma: -14.63
Leishmania in macrophages: 21.9
TcHisRS: 3.955
LiHisRS: 10.34
ClpP1P2: -20.46
T. brucei: -8.323

SMILES: CCc1ncnc(N2CCOCC2CCO)c1F (stereo not given)
Toxoplasma: 4.348
Leishmania in macrophages: -1.641
TcHisRS: 11.88
LiHisRS: 2.381
ClpP1P2: 23.44
T. brucei: -27.42

SMILES: O=C(C1CCCCC1)N1CCC2(COc3ncccc3S(=O)(=O)N2)C1 (stereo not given)
Toxoplasma: -2.729
Leishmania in macrophages: 14.67
TcHisRS: 0.5917
LiHisRS: 5.517
ClpP1P2: 0.7507

SMILES: Cc1nc(C2CCN(C(=O)c3ccc(Cl)s3)CC2)cc(=O)[nH]1
Toxoplasma: -11.18
Leishmania in macrophages: -25.37
TcHisRS: 7.143
LiHisRS: 3.306
ClpP1P2: -10.38
T. brucei: -4.864

SMILES: CC(C)n1ccc(C(=O)NCC(O)c2c(Cl)cccc2Cl)n1 (stereo not given)
Toxoplasma: 11.82
Leishmania in macrophages: -78.23
TcHisRS: -0.6135
LiHisRS: 12.35
ClpP1P2: 12.95
T. brucei: -37.09

SMILES: c1ccc(C2Cn3ccnc3CN2Cc2ncc[nH]2)cc1 (stereo not given)
Toxoplasma: 8.261
Leishmania in macrophages: 21.01
TcHisRS: -1.695
LiHisRS: 8.392
ClpP1P2: -15.23
T. brucei: -16.92

SMILES: Cc1nc(-c2ccc(F)c(F)c2)cc(C2CCNCC2)n1
TcHisRS: 3.101
LiHisRS: 14.18
ClpP1P2: -11.15

SMILES: Cc1nsc(N2CCN(CC(=O)NCc3cccnc3)CC2)n1
Toxoplasma: -14.16
Leishmania in macrophages: 11.13
TcHisRS: 7.447
LiHisRS: 15.62
ClpP1P2: -0.004313
T. brucei: -19.56

2 of the entries, repeated:

{"smiles": "CC(C)n1ccc(C(=O)NCC(O)c2c(Cl)cccc2Cl)n1", "stereo": "stereo not given", "Toxoplasma": 11.82, "Leishmania in macrophages": -78.23, "TcHisRS": -0.6135, "LiHisRS": 12.35, "ClpP1P2": 12.95, "T. brucei": -37.09}
{"smiles": "Cc1c(Br)cccc1C(=O)NCCC1CCCNC1", "stereo": "stereo not given", "TcHisRS": 5.419, "LiHisRS": -6.494, "ClpP1P2": -11.95}

From ChEMBL document CHEMBL3988442, “University of Dundee, Small-Polar-MMV Screening Library” (2021).